We go through one sequence from patent US20070197432A1, “Peptides for preventing, diagnosing and treating animal and/or human leptospirosis” (priority 2002, published 2007).

No end group written: not given here. Where only a bound is given, the exact number is not on record here.

In the series the test system is IgM and IgG antibodies in dog sera. Kind of series: Diagnostic ELISA of dog sera against PP peptide or recombinant PPL protein. To be noted: sera from SPF dogs immunized against leptospirosis (3039, 3051, 3058). In kind it is binding. A general note: An ELISA detects its analyte on a solid surface through an enzyme-linked reagent.

In the case of “KAKPVQKLDDDDDGDDTYKEERHNK [PP peptide, 25 amino acid peptide, fragment aa153-aa177 of the PPL protein of Leptospira interrogans]”, the “IgG response against the antigen, OD” value was under 0.25.
